Measurements taken from PMC6549480.
These are yes or no findings as the source states them, for the method shown. Binding seen in cells or lysates may run through a third protein. Some entries that bind do so weakly or less than the wild type.

By UniProt entry, the sequences of proteins in these tests, tags left out.
UniProt O43242: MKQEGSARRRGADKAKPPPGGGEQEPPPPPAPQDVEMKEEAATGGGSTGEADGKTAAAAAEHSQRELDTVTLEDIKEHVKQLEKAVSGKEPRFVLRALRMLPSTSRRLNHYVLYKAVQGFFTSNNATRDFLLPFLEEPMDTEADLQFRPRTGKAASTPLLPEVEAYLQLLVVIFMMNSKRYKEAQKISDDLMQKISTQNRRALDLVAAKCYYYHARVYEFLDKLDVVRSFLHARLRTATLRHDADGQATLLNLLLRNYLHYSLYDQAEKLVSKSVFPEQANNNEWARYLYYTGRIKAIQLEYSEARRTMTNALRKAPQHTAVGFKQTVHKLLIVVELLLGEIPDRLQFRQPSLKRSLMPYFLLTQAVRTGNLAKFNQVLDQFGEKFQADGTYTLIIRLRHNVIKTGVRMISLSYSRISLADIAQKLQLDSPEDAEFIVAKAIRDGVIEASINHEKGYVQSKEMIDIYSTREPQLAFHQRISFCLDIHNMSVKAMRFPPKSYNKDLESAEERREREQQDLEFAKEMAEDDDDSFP

Columns and labels:
[1] = target: Proteasome 26S subunit, non-ATPase 3 (PSMD3) (human (endogenous in BT-474, SKBR3, HCC1419)) (UniProt O43242); experiment: co-IP; total cell lysates (0.8-1 mg) of HER2+ cells (BT-474, SKBR3, HCC1419), precleared, incubated with PSMD3 or HER2 antibody overnight at 4 °C, protein A or G agarose beads, IgG as negative control; Western blot with anti-PSMD3 or anti-HER2
[2] = target: Human epidermal growth factor receptor 2 (HER2) (human (endogenous in BT-474, SKBR3, HCC1419)) (UniProt P04626); experiment: FRET or BRET; confocal FRET on fixed cells (BT-474, SKBR3, HCC-1419) stained with PSMD3 and HER2 primary antibodies at 4 °C overnight, then secondary antibodies conjugated with Rhodamine (anti-PSMD3) and FITC (anti-HER2) for an hour at room temperature
[3] = target: Human epidermal growth factor receptor 2 (HER2) (human (endogenous in BT-474, SKBR3, HCC1419)) (UniProt P04626); experiment: co-IP; total cell lysates (0.8-1 mg) of HER2+ cells (BT-474, SKBR3, HCC1419), precleared, incubated with PSMD3 or HER2 antibody overnight at 4 °C, protein A or G agarose beads, IgG as negative control; Western blot with anti-PSMD3 or anti-HER2

Substance | binding [1] | binding [2] | binding [3]
Human epidermal growth factor receptor 2 (HER2) (from UniProt P04626 23-1255) | binds |  | 
Proteasome 26S subunit, non-ATPase 3 (PSMD3) (from UniProt O43242 1-534) |  | binds | binds
